{
  "source": "PubChem BioAssay AID504467",
  "about": "(National Center for Advancing Translational Sciences (NCATS), 2011)",
  "note": "Hit rate of the full screen: of about 330,000 compounds, about 7,700 (2.3%) were called active. This list was built around the results that the source calls inconclusive (neither active nor inactive); the mix of calls is not that of the screen. Calls follow the shape of the dose curve; as a rule, active = well fitted inhibition curve with a large enough effect; inconclusive = small, poorly fitted or top-dose-only effect, or effect the other way; inactive = flat fitted curve, though single readings scatter. Potencies beside an inconclusive call are fits to weak or partial responses and may not hold up.",
  "data": [
    {"assay": "qHTS screen for small molecules that inhibit ELG1-dependent DNA repair in human embryonic kidney (HEK293T) cells expressing luciferase-tagged ELG1; also: nearly all actives have a fitted effect of over 55% in size; also: potency is read from the fitted curve at half-maximal effect", "settings": "HEK293T ELG1-luciferase reporter, luminescence, 16 h, DNA damage induced by 5-fluorouridine; series mostly up to 46.1 µM", "outline": "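Quantitative HTS, concentration-response format. 2,000 cells/well co-treated with 5-fluorouridine and compound, 16 hr in 5% CO2 at 37 °C; ONE-Glo luminescence read after 30 min.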", "values": [
      {"compound": "Cn1c(CS(=O)Cc2c(Cl)cccc2Cl)nnc1SCc1c(Cl)cccc1Cl", "note": "(stereo not given)", "Potency": "inconclusive: 29.1 µM [inhibitor, single point]"},
      {"compound": "COc1ccc(Cl)cc1NC(=S)NCc1ccccn1", "Potency": "inconclusive: 16.4 µM [activator, partial curve, poor fit]"},
      {"compound": "O=C(CCn1c(=S)oc2ccccc21)Nc1ccccc1Br", "Potency": "inactive"},
      {"compound": "Clc1cccc(-c2sc(Nc3ccccc3)n[n+]2-c2ccccc2)c1Cl", "Potency": "inconclusive: 3.66 µM [inhibitor, partial curve, poor fit]"},
      {"compound": "O=C(CSc1nc2ccccc2[nH]1)Nc1c(F)cccc1F", "Potency": "inconclusive: 0.116 µM [activator, partial curve, poor fit]"},
      {"compound": "O=C(c1cccc(Cl)c1)N1CCC(=O)N(C(COCc2cccc(Cl)c2)Cc2ccccc2)CC1", "note": "(stereo not given)", "Potency": "inconclusive: 20.6 µM [inhibitor, partial curve]"},
      {"compound": "CCOC(=O)c1c(C)n(C)c2ccc(OCC(O)Cn3nc(C)c(Br)c3C)cc12", "note": "(stereo not given)", "Potency": "active: 20.6 µM"},
      {"compound": "O=C(N/N=C/C=C/c1ccccc1)NC1CCCCC1", "Potency": "inactive"},
      {"compound": "COc1ccc(CNC(=O)C2CCN(S(=O)(=O)N3CCCC3)CC2)c(OC)c1", "Potency": "inactive"},
      {"compound": "Cc1nc2ccccn2c1/C(O)=C1\\C(=O)C(=O)N(CCN2CCOCC2)C1c1cccnc1", "note": "(stereo not given)", "Potency": "inconclusive: 1.3 µM [activator, full curve, poor fit]"},
      {"compound": "Cc1nc(C2CCC3C4CCC5=CC(=O)CC[C@]5(C)C4CC[C@]23C)cs1", "note": "(stereo not given in full)", "Potency": "inconclusive: 2.31 µM [inhibitor, full curve]"},
      {"compound": "COc1cc(NC(=S)NCCN2CCOCC2)cc(OC)c1", "Potency": "inactive"},
      {"compound": "CCCC(=O)Nc1nc2ccc(C(=O)OCC)cc2s1", "Potency": "inconclusive: 10.3 µM [activator, partial curve]"},
      {"compound": "COc1cc(CNS(=O)(=O)CCl)cc(OC)c1OC", "Potency": "inactive"},
      {"compound": "O=C1NNC(c2ccccc2)=N/C1=C\\c1ccccc1", "Potency": "inconclusive: 29.1 µM [inhibitor, single point]"},
      {"compound": "C=CCNc1sc(C(=O)c2ccccc2)c(N)c1-c1nc2ccccc2s1", "Potency": "inactive"},
      {"compound": "O=C1NC(=S)S/C1=C\\c1ccc(SCc2ccccc2)o1", "Potency": "inactive"},
      {"compound": "S=C(Nc1ccc2cn[nH]c2c1)Nc1ccccc1Cl", "Potency": "inconclusive: 20.6 µM [activator, single point]"},
      {"compound": "CCCC(C(=O)NC1CCCC1)N(Cc1ccccc1Cl)C(=O)c1snc(C(N)=O)c1N", "note": "(stereo not given)", "Potency": "inactive"},
      {"compound": "COc1cccc(OCc2cc(/C=N/NC(=O)c3nc(Cl)c(Cl)c(N)c3Cl)ccc2OC)c1", "Potency": "inconclusive: 23.1 µM [inhibitor, partial curve]"},
      {"compound": "COCCNC(=S)N(Cc1cccs1)Cc1cc2cccc(C)c2[nH]c1=O", "Potency": "inconclusive: 20.6 µM [inhibitor, single point]"},
      {"compound": "CCC(CC)c1nnc(NC(=O)C2=COCCO2)s1", "Potency": "inconclusive: 20.6 µM [activator, partial curve]"},
      {"compound": "CCC(=O)N1CCN(c2ccc(NC(=O)c3ccc([N+](=O)[O-])o3)cc2)CC1", "Potency": "inactive"},
      {"compound": "C[C@]12c3[nH]c4ccc(Cl)cc4c3CCN1C(=O)[C@@H](CC(=O)NCCc1ccccn1)C[C@@H]2C(=O)N1CCCCC1", "Potency": "active: 7.3 µM"},
      {"compound": "Cc1ccc(NC(=O)CCCCCC2NC(=O)NC2C)cc1", "note": "(stereo not given)", "Potency": "inactive"},
      {"compound": "Cc1ccc(S(=O)(=O)N(C(=O)c2ccncc2)c2ccc(OC(=O)c3ccncc3)c3ccccc23)cc1", "Potency": "active: 18.4 µM"},
      {"compound": "Cc1cc(C)n(-c2ccccc2C#N)n1", "Potency": "inconclusive: 10.3 µM [activator, partial curve, poor fit]"},
      {"compound": "CCOC(=O)/C=C1\\CN(C(C)c2ccccc2)S(=O)(=O)c2ccccc21", "note": "(stereo not given)", "Potency": "inactive"},
      {"compound": "CCn1cc(CN2CCC(n3nccc3NC(=O)c3cccc(F)c3)CC2)c(C)n1", "Potency": "inconclusive: 5.17 µM [activator, full curve]"},
      {"compound": "COc1cc2c(C#CCCO)c(-c3ccc(C#N)cc3)oc(=O)c2cc1OC", "Potency": "inactive"},
      {"compound": "CCCCCN(C(=O)CCC(=O)OCC(=O)c1c(C)cc(C)cc1C)c1c(N)n(CCCC)c(=O)[nH]c1=O", "Potency": "inactive"},
      {"compound": "O=C(CNS(=O)(=O)c1ccc(F)cc1)Nc1ccc(C(F)(F)F)cc1", "Potency": "inconclusive: 25.9 µM [inhibitor, single point]"},
      {"compound": "NC(=O)C1(N2CCCCC2)CCN(CC(=O)Nc2ccccc2Sc2ccccc2)CC1", "Potency": "inconclusive: 29.1 µM [inhibitor, single point]"},
      {"compound": "Cc1cccc(Nc2ccc([N+](=O)[O-])cn2)c1", "Potency": "inconclusive: 18.3 µM [activator, partial curve]"},
      {"compound": "O=C(NCc1ccccc1CN1CCCC1)C1CCN(C(=O)c2ccc(F)cc2)CC1", "Potency": "inactive"},
      {"compound": "COc1cccc(NC(=O)C2CCN(C(=O)[C@@H]3Cc4ccccc4CN3C(=O)OC(C)(C)C)CC2)c1", "Potency": "inconclusive: 29.1 µM [inhibitor, single point]"},
      {"compound": "COc1ccc(C2=C(C=C(C#N)C#N)C(c3ccccc3C)c3ccccc3O2)cc1OC", "note": "(stereo not given)", "Potency": "inconclusive: 32.6 µM [inhibitor, single point]"},
      {"compound": "Cc1ccc(S(=O)(=O)N(C)c2ccc3ccccc3c2)cc1", "Potency": "inconclusive: 29.1 µM [inhibitor, single point]"},
      {"compound": "CC/C(=N\\NC(=O)c1ccc(Br)cc1)c1ccccc1", "Potency": "inconclusive: 20.6 µM [activator, single point]"},
      {"compound": "COc1ccc2nc(NC(=O)/C=C/c3ccc4c(c3)OCO4)sc2c1", "Potency": "inconclusive: 29.1 µM [activator, partial curve, poor fit]"},
      {"compound": "O=C(c1cc(Cl)nc2ccccc12)N(Cc1nnc(-c2ccc(Cl)cc2)o1)C1CC1", "Potency": "inactive"},
      {"compound": "O=c1cc(-c2ccc(O)c(O)c2)oc2ccc3ccccc3c12", "Potency": "inconclusive: 1.83 µM [activator, partial curve]"},
      {"compound": "CCCc1ccc(-c2cc(N)n[nH]2)cc1", "Potency": "inconclusive: 20.6 µM [activator, partial curve]"},
      {"compound": "COc1cccc(N=Cc2c(O)n(-c3cccc(C)n3)c(=O)c3ccccc23)c1", "Potency": "inconclusive: 14.6 µM [inhibitor, partial curve]"},
      {"compound": "COc1ccc(CNC(=O)c2nn(-c3ccccc3)cc2OC)cc1", "Potency": "inactive"}
    ]}
  ]
}
